These are yes or no findings as the source states them, for the method shown. In cells and extracts the contact can be indirect. These calls come from enrichment with a bait or labelling near it, and not all partners need be listed. For some of these results: Tags and fused reporters may be left off the sequences shown. Blank lines part the entries; values can stand above or below the molecule they belong to.
How the values were obtained:
MEL-18-Flag (mouse) [1] = target: T1, MEL-18-Flag (mouse) (UniProt P23798); assay: affinity purification with mass spectrometry + co-IP; Flag purification of MEL-18-Flag from NSC nuclear extract, LC-MS/MS and western blot
T1 sequence: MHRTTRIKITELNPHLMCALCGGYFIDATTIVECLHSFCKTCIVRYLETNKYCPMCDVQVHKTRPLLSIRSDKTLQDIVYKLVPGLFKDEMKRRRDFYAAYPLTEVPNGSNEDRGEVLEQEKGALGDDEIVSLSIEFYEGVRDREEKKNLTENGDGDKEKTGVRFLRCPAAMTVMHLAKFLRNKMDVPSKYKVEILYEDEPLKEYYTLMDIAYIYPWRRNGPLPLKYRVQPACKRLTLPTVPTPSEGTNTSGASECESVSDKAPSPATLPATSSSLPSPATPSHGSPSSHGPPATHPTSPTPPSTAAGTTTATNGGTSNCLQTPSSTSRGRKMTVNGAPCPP

Protein sequences, listed by entry. Tags and fused reporters are not part of them.
UniProt O35730: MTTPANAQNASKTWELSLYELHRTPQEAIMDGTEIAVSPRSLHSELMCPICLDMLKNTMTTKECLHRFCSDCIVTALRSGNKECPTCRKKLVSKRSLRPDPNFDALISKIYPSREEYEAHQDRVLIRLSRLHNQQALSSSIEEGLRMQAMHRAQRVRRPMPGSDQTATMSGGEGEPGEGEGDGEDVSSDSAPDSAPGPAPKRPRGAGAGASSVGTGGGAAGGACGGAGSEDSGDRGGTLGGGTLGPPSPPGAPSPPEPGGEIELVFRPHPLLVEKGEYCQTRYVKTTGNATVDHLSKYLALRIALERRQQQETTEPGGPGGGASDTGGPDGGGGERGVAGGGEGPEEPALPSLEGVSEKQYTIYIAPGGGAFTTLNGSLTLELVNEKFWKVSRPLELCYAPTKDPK

MEL-18-Flag (mouse) [2] = target: T1, MEL-18-Flag (mouse); assay: affinity purification with mass spectrometry; Flag purification of MEL-18-Flag, RYBP-Flag or CBX7-Flag from PGK12.1 mESC nuclear extract; gel bands or lanes analysed by LC-MS/MS
CBX7-Flag (mouse) = CBX7-Flag (mouse) (UniProt Q8VDS3); assay: as above
RYBP-Flag (mouse) = target: T2, RYBP-Flag (mouse) (UniProt Q8CCI5); assay: as above
T2 sequence: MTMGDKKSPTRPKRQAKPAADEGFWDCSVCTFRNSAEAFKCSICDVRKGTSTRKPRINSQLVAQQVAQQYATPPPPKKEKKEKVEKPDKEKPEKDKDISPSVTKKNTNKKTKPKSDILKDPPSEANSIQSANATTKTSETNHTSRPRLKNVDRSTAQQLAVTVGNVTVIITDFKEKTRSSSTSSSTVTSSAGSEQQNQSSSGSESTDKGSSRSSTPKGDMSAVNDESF

[3] = target: T3, MEL-18-Flag (mouse), P23798; assay: as above; conditions: remark: other sources report otherwise
T3 chain: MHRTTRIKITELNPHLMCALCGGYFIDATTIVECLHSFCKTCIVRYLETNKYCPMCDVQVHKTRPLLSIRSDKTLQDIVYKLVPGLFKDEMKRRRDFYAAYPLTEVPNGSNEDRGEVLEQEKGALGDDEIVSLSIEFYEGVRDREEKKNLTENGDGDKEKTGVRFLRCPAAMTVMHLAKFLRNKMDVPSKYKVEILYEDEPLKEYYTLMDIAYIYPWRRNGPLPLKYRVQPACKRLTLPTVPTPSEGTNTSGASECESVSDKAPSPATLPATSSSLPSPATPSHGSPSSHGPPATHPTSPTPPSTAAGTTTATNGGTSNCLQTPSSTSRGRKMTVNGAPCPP

[4] = target: T3, MEL-18-Flag (mouse), P23798; assay: affinity purification with mass spectrometry + co-IP; Flag purification of MEL-18-Flag from NSC nuclear extract, LC-MS/MS and western blot; conditions: remark: other sources report otherwise
[5] = target: T4, CBX7-Flag (mouse), Q8VDS3; assay: affinity purification with mass spectrometry; Flag purification of MEL-18-Flag, RYBP-Flag or CBX7-Flag from PGK12.1 mESC nuclear extract; gel bands or lanes analysed by LC-MS/MS; conditions: remark: other sources report otherwise
T4 chain: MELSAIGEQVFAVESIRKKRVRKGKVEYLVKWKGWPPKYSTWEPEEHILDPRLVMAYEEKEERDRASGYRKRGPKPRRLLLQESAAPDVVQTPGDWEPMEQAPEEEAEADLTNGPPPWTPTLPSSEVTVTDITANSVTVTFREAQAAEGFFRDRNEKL

binding (MEL-18-Flag (mouse) [1]): binds
binding (MEL-18-Flag (mouse) [2]): binds
binding (CBX7-Flag (mouse)): binds
binding (RYBP-Flag (mouse)): binds
Molecule: RING1A (from UniProt O35730 1-406)

binding [3]: binds
binding [4]: binds
B1: CBX7, Q8VDS3 1-158 (protein)
chain: MELSAIGEQVFAVESIRKKRVRKGKVEYLVKWKGWPPKYSTWEPEEHILDPRLVMAYEEKEERDRASGYRKRGPKPRRLLLQESAAPDVVQTPGDWEPMEQAPEEEAEADLTNGPPPWTPTLPSSEVTVTDITANSVTVTFREAQAAEGFFRDRNEKL

binding [5]: binds
B2: MEL-18, P23798 1-342 (protein)
chain: MHRTTRIKITELNPHLMCALCGGYFIDATTIVECLHSFCKTCIVRYLETNKYCPMCDVQVHKTRPLLSIRSDKTLQDIVYKLVPGLFKDEMKRRRDFYAAYPLTEVPNGSNEDRGEVLEQEKGALGDDEIVSLSIEFYEGVRDREEKKNLTENGDGDKEKTGVRFLRCPAAMTVMHLAKFLRNKMDVPSKYKVEILYEDEPLKEYYTLMDIAYIYPWRRNGPLPLKYRVQPACKRLTLPTVPTPSEGTNTSGASECESVSDKAPSPATLPATSSSLPSPATPSHGSPSSHGPPATHPTSPTPPSTAAGTTTATNGGTSNCLQTPSSTSRGRKMTVNGAPCPP

— publication PMC3281992
